Patent US10435642B2, “Ionic liquids containing symmetric quaternary phosphonium cations and phosphorus-containing anions, and their use as lubricant additives” (UT-Battelle, LLC, priority 2014, dated 2019)

Legend:
[1] = Corrosion test: droplet of ionic liquid on grey cast iron; settings: fourteen days of exposure
Description: A droplet of each IL was placed on the surface of a piece of grey cast iron.

[2] = High contact stress ball-on-flat reciprocating sliding test (friction and wear); settings: for Wear rate: in GTL base oil: 1 wt % ZDDP, 1.03 wt % [P8888][DEHP], or 0.4 wt % ZDDP + 0.515 wt % [P8888][DEHP]

Substance | Corrosion of gray cast iron surface exposed to IL droplet [1] | Lower wear rate as compared to [P66614][DEHP] or ZDDP ([2]; 1.03 wt % in GTL base oil) | Wear rate [2]
tetraoctylphosphonium bis(2-ethylhexyl)phosphate [[P8888][DEHP]] | no evidence of corrosion | greater than 40% | 1.05×10^−6 mm^3/N-m
zinc dialkyldithiophosphate [ZDDP] | – | – | 1.83×10^−6 mm^3/N-m
trihexyltetradecylphosphonium bis(2-ethylhexyl)phosphate [[P66614][DEHP]] | no evidence of corrosion | – | –
tributyltetradecylphosphonium bis(2-ethylhexyl)phosphate [[P44414][DEHP]] | pitting appeared | – | –
